From article PMC12334247
No constants are given. Whether binding was seen depends on the method and setting. For some of these results: Binding can be weak; no strength is given. Where a sequence is shown, tags or fusion partners need not be part of it.

Tests used:
Test in all cases: two-hybrid; yeast strain PJ694-a; fusions to AD (pDEST22) and BD (pDEST32); -Leu/-Trp selects co-transformation, -Leu/-Trp/-His/-Ade selects for strong interaction
[1] = biological target: T1, ORC5 (origin recognition complex subunit 5), yeast two-hybrid fusion (Arabidopsis thaliana) (UniProt Q6EWX0)
T1 sequence: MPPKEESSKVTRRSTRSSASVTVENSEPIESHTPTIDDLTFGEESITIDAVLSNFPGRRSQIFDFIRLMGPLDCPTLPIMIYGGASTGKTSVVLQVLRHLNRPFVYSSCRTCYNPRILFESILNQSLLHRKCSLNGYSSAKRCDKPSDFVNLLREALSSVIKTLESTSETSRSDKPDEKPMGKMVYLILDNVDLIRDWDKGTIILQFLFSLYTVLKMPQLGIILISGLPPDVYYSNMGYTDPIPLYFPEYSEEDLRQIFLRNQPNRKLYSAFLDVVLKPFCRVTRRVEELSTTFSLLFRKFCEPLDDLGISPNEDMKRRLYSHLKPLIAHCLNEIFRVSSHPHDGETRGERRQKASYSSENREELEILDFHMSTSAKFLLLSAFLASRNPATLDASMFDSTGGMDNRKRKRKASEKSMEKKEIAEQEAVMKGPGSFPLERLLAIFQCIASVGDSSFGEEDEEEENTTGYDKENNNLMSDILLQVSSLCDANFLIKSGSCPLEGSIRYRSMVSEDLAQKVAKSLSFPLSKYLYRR

[2] = biological target: T2, ORC3 (origin recognition complex subunit 3), yeast two-hybrid fusion (Arabidopsis thaliana) (UniProt Q6E7H0)
T2 sequence: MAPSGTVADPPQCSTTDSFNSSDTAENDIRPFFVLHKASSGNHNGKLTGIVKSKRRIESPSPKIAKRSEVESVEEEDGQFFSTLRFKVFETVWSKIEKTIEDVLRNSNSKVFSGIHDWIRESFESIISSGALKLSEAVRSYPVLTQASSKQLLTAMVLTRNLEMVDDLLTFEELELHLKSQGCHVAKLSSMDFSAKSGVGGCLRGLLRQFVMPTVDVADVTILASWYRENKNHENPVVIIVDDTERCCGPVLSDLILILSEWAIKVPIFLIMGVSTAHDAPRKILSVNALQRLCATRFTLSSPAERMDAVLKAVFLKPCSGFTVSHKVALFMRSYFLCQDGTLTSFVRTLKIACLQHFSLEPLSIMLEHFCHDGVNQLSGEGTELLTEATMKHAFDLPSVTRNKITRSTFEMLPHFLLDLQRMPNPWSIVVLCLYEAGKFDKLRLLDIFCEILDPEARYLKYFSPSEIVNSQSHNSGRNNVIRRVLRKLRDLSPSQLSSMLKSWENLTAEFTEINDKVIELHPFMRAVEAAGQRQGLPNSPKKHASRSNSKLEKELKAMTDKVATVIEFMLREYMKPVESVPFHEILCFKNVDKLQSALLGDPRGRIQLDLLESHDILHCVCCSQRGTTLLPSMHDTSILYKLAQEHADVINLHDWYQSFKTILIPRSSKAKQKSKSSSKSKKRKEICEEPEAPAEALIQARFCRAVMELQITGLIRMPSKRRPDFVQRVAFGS

[3] = biological target: T3, KIN10 (SnRK1α1), yeast two-hybrid fusion (Arabidopsis thaliana) (UniProt Q38997)
T3 sequence: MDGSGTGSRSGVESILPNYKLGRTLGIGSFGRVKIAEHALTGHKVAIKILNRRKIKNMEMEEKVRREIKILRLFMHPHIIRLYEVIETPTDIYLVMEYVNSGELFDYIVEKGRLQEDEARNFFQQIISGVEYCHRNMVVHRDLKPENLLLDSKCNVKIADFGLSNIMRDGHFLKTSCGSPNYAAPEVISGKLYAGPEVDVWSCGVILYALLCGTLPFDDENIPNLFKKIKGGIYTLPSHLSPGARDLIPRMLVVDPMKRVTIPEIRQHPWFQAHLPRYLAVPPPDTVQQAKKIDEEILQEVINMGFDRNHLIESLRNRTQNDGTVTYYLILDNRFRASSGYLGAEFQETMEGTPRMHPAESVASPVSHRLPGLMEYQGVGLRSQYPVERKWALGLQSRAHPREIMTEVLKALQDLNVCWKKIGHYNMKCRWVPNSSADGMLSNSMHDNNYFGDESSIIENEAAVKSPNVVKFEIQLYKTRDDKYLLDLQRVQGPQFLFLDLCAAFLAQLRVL

[4] = biological target: T4, ORC4 (origin recognition complex subunit 4), yeast two-hybrid fusion (Arabidopsis thaliana) (UniProt Q6EWX1)
T4 sequence: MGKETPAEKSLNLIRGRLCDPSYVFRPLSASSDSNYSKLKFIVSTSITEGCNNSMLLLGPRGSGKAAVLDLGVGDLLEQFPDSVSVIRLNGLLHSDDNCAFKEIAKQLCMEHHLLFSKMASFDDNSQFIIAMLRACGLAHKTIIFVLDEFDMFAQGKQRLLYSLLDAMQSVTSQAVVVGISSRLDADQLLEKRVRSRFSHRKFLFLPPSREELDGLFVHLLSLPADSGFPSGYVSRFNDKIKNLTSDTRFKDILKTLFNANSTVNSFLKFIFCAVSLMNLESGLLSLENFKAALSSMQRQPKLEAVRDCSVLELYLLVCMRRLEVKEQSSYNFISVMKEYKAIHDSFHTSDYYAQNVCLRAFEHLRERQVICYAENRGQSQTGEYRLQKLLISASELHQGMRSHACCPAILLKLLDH

For “ABAP1 interacting protein 10 (AIP10), yeast two-hybrid fusion (Arabidopsis thaliana)”, the binding [1] was “no binding”, the binding [2] was “no binding” and the binding [3] was “binds”. The binding [4] was “no binding”.
